{"sequences": {"note": "By UniProt entry, the sequences of proteins in these tests, tags left out. Where a name states a change or a piece, a line headed by the entry shows the natural chain unless it says otherwise.", "UniProt Q99590": "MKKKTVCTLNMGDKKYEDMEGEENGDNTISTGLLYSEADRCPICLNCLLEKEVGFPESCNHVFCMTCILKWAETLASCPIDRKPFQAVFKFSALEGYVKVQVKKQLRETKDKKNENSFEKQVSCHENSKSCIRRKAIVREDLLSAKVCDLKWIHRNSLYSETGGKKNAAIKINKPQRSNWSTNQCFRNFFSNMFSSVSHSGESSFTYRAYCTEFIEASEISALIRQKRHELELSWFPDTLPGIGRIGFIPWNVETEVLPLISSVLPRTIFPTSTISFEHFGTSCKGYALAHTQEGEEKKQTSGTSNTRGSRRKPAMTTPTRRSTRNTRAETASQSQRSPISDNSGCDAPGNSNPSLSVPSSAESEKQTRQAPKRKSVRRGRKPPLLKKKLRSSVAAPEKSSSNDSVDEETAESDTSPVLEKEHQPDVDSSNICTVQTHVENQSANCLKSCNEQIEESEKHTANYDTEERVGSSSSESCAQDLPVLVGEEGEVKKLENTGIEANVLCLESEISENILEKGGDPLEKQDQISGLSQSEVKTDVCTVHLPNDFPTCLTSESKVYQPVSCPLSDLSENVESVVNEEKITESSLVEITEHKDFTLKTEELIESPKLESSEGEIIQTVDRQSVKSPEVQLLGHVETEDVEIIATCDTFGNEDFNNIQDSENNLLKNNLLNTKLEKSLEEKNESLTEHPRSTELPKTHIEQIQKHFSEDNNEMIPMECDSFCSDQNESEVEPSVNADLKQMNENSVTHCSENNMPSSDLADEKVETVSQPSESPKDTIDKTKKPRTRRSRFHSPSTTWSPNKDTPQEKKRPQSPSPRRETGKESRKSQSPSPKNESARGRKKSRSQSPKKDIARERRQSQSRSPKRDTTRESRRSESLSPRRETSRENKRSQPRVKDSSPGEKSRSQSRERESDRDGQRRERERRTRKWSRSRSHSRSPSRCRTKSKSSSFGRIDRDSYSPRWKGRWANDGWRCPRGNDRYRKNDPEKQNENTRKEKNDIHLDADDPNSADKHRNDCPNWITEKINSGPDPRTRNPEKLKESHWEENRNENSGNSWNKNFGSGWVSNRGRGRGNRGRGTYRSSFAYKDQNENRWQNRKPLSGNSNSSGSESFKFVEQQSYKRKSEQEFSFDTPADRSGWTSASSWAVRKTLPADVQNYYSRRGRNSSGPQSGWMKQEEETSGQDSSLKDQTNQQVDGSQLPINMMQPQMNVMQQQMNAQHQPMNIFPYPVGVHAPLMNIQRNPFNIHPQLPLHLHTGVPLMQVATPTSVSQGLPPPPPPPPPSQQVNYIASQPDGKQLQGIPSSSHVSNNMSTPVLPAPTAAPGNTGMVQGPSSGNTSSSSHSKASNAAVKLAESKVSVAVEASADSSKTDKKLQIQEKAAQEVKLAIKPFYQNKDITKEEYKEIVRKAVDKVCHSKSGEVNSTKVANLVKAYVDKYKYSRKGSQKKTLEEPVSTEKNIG", "UniProt Q01826": "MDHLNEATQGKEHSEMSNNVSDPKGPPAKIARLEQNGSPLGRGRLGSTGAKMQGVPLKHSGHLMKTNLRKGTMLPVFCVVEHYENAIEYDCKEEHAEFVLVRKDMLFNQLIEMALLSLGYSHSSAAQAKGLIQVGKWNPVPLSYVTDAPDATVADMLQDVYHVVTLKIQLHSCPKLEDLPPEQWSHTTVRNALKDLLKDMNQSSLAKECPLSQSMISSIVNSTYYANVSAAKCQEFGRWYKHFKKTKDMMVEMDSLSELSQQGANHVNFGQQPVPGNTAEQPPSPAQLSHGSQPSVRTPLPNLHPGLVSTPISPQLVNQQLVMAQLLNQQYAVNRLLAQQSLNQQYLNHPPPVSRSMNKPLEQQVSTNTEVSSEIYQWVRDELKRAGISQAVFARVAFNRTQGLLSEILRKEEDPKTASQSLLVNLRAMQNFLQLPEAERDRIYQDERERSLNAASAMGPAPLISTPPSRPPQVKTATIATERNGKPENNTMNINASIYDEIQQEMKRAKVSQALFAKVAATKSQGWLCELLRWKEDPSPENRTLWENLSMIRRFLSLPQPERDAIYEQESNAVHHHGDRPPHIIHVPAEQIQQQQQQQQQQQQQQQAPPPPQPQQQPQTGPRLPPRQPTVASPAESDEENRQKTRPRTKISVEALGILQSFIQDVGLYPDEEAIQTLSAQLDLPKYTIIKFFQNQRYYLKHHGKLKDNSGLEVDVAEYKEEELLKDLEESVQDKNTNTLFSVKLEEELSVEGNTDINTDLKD", "UniProt Q9GZR1": "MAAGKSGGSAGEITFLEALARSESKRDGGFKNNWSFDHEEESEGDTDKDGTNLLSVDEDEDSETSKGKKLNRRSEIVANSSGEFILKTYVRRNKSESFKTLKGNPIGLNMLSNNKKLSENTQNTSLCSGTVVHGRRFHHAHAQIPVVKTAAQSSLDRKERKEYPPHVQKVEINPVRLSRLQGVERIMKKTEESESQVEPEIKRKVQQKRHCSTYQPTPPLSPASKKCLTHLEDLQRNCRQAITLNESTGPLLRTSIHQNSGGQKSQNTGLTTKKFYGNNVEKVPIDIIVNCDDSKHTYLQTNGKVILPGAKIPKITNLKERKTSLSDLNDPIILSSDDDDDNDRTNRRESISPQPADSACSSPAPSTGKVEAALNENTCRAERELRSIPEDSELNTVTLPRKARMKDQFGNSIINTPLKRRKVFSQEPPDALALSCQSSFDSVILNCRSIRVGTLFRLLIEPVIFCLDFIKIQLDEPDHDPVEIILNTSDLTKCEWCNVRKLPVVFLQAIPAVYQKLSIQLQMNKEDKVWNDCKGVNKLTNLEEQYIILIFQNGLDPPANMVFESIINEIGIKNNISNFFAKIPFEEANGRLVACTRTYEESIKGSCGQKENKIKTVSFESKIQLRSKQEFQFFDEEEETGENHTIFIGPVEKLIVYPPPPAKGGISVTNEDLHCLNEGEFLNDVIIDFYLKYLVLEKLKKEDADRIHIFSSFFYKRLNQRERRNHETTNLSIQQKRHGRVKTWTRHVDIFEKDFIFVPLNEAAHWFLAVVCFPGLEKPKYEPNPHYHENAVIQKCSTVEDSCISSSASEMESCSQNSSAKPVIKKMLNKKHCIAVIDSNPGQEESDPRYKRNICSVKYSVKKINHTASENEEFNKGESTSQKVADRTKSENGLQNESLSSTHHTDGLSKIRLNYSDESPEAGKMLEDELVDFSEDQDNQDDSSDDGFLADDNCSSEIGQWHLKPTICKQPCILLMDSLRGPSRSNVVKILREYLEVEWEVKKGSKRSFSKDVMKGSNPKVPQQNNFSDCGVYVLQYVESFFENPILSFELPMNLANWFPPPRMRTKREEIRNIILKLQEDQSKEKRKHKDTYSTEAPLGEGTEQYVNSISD", "UniProt O15027": "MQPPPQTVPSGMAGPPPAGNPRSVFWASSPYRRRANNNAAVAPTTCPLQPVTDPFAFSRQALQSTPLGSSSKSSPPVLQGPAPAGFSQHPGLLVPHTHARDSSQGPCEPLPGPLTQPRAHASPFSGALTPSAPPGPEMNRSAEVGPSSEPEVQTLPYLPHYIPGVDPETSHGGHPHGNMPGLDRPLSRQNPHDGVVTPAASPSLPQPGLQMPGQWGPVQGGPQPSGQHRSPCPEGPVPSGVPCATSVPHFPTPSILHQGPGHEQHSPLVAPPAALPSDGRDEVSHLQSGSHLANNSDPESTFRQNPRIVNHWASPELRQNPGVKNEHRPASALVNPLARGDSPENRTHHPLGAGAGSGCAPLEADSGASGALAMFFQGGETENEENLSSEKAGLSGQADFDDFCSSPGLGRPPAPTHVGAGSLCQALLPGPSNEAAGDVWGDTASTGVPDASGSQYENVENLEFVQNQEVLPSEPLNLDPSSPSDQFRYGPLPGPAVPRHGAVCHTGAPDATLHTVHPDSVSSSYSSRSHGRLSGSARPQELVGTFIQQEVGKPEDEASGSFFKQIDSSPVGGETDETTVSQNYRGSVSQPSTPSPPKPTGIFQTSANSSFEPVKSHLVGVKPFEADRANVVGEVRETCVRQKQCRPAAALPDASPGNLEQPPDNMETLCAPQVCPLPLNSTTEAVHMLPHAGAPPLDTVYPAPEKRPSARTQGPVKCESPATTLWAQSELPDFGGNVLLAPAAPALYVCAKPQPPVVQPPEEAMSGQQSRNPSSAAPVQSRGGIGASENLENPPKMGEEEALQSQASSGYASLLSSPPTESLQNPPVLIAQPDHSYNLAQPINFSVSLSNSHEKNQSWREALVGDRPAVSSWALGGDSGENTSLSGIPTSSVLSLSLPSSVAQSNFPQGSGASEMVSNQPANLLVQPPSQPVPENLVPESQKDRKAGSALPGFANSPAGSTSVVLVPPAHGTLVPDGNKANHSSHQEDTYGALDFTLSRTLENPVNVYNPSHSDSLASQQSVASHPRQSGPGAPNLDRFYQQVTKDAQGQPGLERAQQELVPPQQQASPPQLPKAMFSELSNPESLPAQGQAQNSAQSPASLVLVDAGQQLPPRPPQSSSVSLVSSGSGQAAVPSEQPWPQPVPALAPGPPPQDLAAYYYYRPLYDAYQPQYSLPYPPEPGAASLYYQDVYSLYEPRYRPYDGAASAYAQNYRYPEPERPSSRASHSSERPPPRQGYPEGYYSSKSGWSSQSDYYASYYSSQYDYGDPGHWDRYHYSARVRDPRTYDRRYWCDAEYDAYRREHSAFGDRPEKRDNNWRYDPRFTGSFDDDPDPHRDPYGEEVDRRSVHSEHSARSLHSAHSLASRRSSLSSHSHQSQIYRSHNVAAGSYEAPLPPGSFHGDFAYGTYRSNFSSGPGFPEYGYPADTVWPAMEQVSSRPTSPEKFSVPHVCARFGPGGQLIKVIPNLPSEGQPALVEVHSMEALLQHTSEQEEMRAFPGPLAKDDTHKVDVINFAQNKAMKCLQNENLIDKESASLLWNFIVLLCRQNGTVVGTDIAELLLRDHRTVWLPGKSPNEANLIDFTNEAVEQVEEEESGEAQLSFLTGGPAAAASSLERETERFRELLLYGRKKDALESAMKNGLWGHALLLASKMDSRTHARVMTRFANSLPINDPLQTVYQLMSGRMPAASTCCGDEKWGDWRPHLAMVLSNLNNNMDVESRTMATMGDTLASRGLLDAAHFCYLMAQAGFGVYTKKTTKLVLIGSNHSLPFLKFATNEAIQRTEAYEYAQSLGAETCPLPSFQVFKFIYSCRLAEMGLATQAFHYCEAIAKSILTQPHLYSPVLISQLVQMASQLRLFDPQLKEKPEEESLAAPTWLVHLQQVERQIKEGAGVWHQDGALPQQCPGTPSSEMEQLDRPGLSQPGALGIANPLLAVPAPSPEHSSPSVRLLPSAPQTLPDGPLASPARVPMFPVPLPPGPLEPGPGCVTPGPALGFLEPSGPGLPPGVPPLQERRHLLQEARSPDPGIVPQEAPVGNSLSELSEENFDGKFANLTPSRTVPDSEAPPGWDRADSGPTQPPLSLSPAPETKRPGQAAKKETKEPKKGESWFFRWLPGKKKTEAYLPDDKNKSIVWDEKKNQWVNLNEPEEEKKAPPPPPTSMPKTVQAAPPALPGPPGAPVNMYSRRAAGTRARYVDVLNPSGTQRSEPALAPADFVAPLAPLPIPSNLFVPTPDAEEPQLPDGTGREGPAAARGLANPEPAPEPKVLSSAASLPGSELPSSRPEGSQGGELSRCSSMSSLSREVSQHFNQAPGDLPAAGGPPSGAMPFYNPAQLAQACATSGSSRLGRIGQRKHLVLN", "UniProt Q9Y3A5": "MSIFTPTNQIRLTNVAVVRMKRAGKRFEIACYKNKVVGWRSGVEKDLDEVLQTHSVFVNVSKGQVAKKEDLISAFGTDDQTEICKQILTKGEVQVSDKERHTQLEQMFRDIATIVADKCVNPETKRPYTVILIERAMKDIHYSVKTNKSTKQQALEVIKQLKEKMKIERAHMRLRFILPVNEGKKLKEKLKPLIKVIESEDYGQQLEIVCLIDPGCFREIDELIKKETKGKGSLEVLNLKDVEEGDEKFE", "UniProt Q9Y512": "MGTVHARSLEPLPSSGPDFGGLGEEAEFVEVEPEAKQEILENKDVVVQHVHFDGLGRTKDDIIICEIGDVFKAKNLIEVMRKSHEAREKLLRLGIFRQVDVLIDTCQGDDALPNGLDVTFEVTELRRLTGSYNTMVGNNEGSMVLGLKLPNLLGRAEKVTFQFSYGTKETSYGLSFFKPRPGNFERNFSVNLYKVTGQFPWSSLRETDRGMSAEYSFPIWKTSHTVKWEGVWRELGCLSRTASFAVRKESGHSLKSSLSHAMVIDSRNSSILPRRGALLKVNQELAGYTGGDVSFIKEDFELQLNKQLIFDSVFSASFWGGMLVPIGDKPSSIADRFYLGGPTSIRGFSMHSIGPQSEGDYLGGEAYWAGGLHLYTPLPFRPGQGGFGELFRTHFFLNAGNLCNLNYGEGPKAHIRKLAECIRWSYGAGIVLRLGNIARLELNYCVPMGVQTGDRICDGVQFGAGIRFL"}, "source": "the supplement of paper PMC12067093", "about": "“Discovery and optimisation of a covalent ligand for TRIM25 and its application to targeted protein ubiquitination” (Chemical Science, 2025)", "compound": "Cc1cc(ccc1-c1ccccc1)C(=O)N1CCCN(CC1)C(=O)CCl [compound 10]", "test": "probe-labelled cysteine peptide fold change vs DMSO (competition) (log2 fold change); higher = less target engagement (more negative = stronger competition)", "settings": "THP-1, incubation time: 4 h", "note": "Some of the results follow.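 Also: competitive profiling in live THP-1 cells: cysteine peptides tagged with an iodoacetamide desthiobiotin (IA-DTB) probe, intensity after compound treatment relative to DMSO-treated cells.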"}
{"target": "SCAF11_Q99590_566_VYQPVSCPLSDLSENVESVVNEEK (UniProt Q99590)", "values": [{"measurement": "probe-labelled cysteine peptide fold change", "setting": "10 µM", "value": -0.175}, {"measurement": "probe-labelled cysteine peptide fold change", "setting": "50 µM", "value": -0.249}]}
{"target": "SATB1_Q01826_91_GTMLPVFCVVEHYENAIEYDCK (UniProt Q01826)", "values": [{"measurement": "probe-labelled cysteine peptide fold change", "setting": "10 µM", "value": 0.316}, {"measurement": "probe-labelled cysteine peptide fold change", "setting": "50 µM", "value": 0.467}]}
{"target": "SCP2_P22307_365_GHPLGATGLAQCAELCWQLR (UniProt P22307)", "values": [{"measurement": "probe-labelled cysteine peptide fold change", "setting": "10 µM", "value": -1.02}, {"measurement": "probe-labelled cysteine peptide fold change", "setting": "50 µM", "value": -0.686}]}
{"target": "SENP6_Q9GZR1_127_KLSENTQNTSLCSGTVVHGR (UniProt Q9GZR1)", "values": [{"measurement": "probe-labelled cysteine peptide fold change", "setting": "10 µM", "value": -0.0334}, {"measurement": "probe-labelled cysteine peptide fold change", "setting": "50 µM", "value": -0.339}]}
{"target": "SATB1_Q01826_209_ECPLSQSMISSIVNSTYYANVSAAK (UniProt Q01826)", "values": [{"measurement": "probe-labelled cysteine peptide fold change", "setting": "10 µM", "value": 0.225}, {"measurement": "probe-labelled cysteine peptide fold change", "setting": "50 µM", "value": -0.391}]}
{"target": "SEC24D_O94855_1028_EICQLLN (UniProt O94855)", "values": [{"measurement": "probe-labelled cysteine peptide fold change", "setting": "10 µM", "value": -0.0209}, {"measurement": "probe-labelled cysteine peptide fold change", "setting": "50 µM", "value": 0.102}]}
{"target": "SEC16A_O15027_107_DSSQGPCEPLPGPLTQPR (UniProt O15027)", "values": [{"measurement": "probe-labelled cysteine peptide fold change", "setting": "10 µM", "value": -0.262}, {"measurement": "probe-labelled cysteine peptide fold change", "setting": "50 µM", "value": -0.217}]}
{"target": "SBDS_Q9Y3A5_84_EDLISAFGTDDQTEICK (UniProt Q9Y3A5)", "values": [{"measurement": "probe-labelled cysteine peptide fold change", "setting": "10 µM", "value": 0.103}, {"measurement": "probe-labelled cysteine peptide fold change", "setting": "50 µM", "value": 0.224}]}
{"target": "SCYL2_Q6P3W7_511_VNSLVCLGK (UniProt Q6P3W7)", "values": [{"measurement": "probe-labelled cysteine peptide fold change", "setting": "10 µM", "value": -0.2}, {"measurement": "probe-labelled cysteine peptide fold change", "setting": "50 µM", "value": 0.122}]}
{"target": "SBNO2_Q9Y2G9_908_ALHCVLTTILSQTENK (UniProt Q9Y2G9)", "values": [{"measurement": "probe-labelled cysteine peptide fold change", "setting": "10 µM", "value": 0.0907}, {"measurement": "probe-labelled cysteine peptide fold change", "setting": "50 µM", "value": -0.477}]}
{"target": "SCRIB_Q14160_496_RSEACPCQPDSGSPLPAEEEK (UniProt Q14160)", "values": [{"measurement": "probe-labelled cysteine peptide fold change", "setting": "10 µM", "value": -0.341}, {"measurement": "probe-labelled cysteine peptide fold change", "setting": "50 µM", "value": -0.992}]}
{"target": "SEC23IP_Q9Y6Y8_814_IDENYSLPTCK (UniProt Q9Y6Y8)", "values": [{"measurement": "probe-labelled cysteine peptide fold change", "setting": "10 µM", "value": 0.112}, {"measurement": "probe-labelled cysteine peptide fold change", "setting": "50 µM", "value": 0.223}]}
{"target": "SAMM50_Q9Y512_457_ICDGVQFGAGIR (UniProt Q9Y512)", "values": [{"measurement": "probe-labelled cysteine peptide fold change", "setting": "10 µM", "value": 0.0539}, {"measurement": "probe-labelled cysteine peptide fold change", "setting": "50 µM", "value": -0.404}]}
{"target": "SCRIB_Q14160_334_LTNLNVDRNHLEALPPEIGGCVALSVLSLR (UniProt Q14160)", "values": [{"measurement": "probe-labelled cysteine peptide fold change", "setting": "10 µM", "value": -0.0166}, {"measurement": "probe-labelled cysteine peptide fold change", "setting": "50 µM", "value": -0.354}]}
